Source: PubChem BioAssay AID504834 (National Center for Advancing Translational Sciences (NCATS), 2011)
“And” between values parts separate entries of the source, which are not always exact repeats. Identical values can stand only once. The whole screen tested about 320,000 compounds, of which about 22,000 (6.9%) were called active. Inconclusive means that the source gave no clear call. Such entries were picked first, then a sample of the others. Calls come from the whole dose curve; as a rule, active = well fitted inhibition curve with a large enough effect; inconclusive = small, poorly fitted or top-dose-only effect, or another doubt; inactive = no such curve, though single readings can be large or run the other way. Potencies beside an inconclusive call are fits to weak or partial responses and may not hold up.

Assay: Primary qHTS for delayed death inhibitors of the malarial parasite plastid, 96 hour incubation
Conditions: P. falciparum luciferase reporter growth; series mostly up to 28.7 µM; activity change, negative = inhibition: at the top concentration
How it was run: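 Compounds incubated with erythrocytes infected by luciferase-expressing P. falciparum (2% hematocrit, 0.05% parasitemia final) for 96 hours, 37 C in 5% CO2. Growth inhibition scored as decreased luciferase luminescence.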
% is set by controls: 0 for no effect and ±100 for the full control effect; potency is the fitted concentration of half-maximal effect.

Compound	activity change, negative = inhibition	Potency
COc1ccc(C(=O)/C=C(\N)C(F)(F)F)c(O)c1	inactive: -1.53%	
Clc1ccccc1-c1nc(-c2ccc(Br)o2)no1		inconclusive: 18.5 µM [inhibitor, single point]
Cc1c(C#N)c(N)nc2c3c(sc12)NC(=O)CC3c1ccccc1 (stereo unspecified)	inactive: 9.38%	
O=C(NC1CCCCCC1)c1cccc(COCC(F)(F)F)c1	inactive: -4.71%	
Cc1c(O)c(CN2CCCCC2)cc2c3c(c(=O)oc12)CCC3		active: 9.28 µM
CCC1=C(OC(=O)N(CC)CC)N2C(=O)OC(=NCC3CC3)[C@]2(C)[C@H]2C1=CC[C@H]1C(=O)N(CC)C(=O)[C@H]12		inconclusive: 13.1 µM [inhibitor, single point]
CCOCCCNC(=S)N(CCO)Cc1cc2cc3c(cc2[nH]c1=O)OCCO3		inconclusive: 10.4 µM [inhibitor, single point]
Nc1ccnc(C(F)(F)F)c1C(=O)c1ccccc1		inconclusive: 4.15 µM [inhibitor, partial curve, poor fit]
COCCNC(=O)CN(C(=O)CCC(=O)Nc1nccs1)c1ccc2c(c1)OCO2		inconclusive: 18.5 µM [inhibitor, single point]
CN1C(=O)CC(Sc2ncccc2C(=O)O)C1=O (stereo unspecified)		inconclusive: 1.85 µM [inhibitor, partial curve, poor fit]
Cc1cc(N2CCN(c3ccccc3)CC2)nc(N)n1		inconclusive: 11.7 µM [inhibitor, single point]
C[C@H](NC(=O)c1[nH]cnc1C(=O)Nc1cccc(Cl)c1)c1ccccc1		inconclusive: 16.5 µM [inhibitor, single point]
COc1ccccc1CNC(=O)CN1C(=O)NC(C)(c2ccc(C)cc2)C1=O (stereo unspecified)	inactive: 11.7%	
Nc1n[nH]c(N)c1N=Nc1ccc(Cl)cc1	inactive: 5.69%	
CCNC(=S)N(CCc1c(C)[nH]c2ccc(Cl)cc12)Cc1ccco1		inconclusive: 18.5 µM [inhibitor, single point]
Cc1ccc(N=Nc2ccc(O)c(/C=N\NC(=O)c3ccc(N)cc3)c2)cc1C	inactive: -3.96%	
Cc1nnc2ccc(-c3cccc(NS(=O)(=O)c4cc(F)ccc4F)c3)nn12		inconclusive: 4.15 µM [inhibitor, single point]
COc1ccc2c(C=Nc3c(C)n(C)n(-c4ccccc4)c3=O)c(O)n(Cc3ccco3)c(=O)c2c1		inconclusive: 1.47 µM [inhibitor, partial curve, poor fit] and inconclusive: 10.4 µM [inhibitor, partial curve, poor fit]
COc1ccc2[nH]c(C(=O)Nc3ccccc3Cl)cc2c1	inactive: 103%	
OCCN(C=NC1=NN(c2cccc(C(F)(F)F)c2)CC1)CCO	inactive: 410%	
COc1ccc(N(C(=O)c2snc(C(N)=O)c2N)C(C(=O)NC2CCCC2)c2ccc(OC)c(OC)c2)cc1 (stereo unspecified)	inactive: 6.51%	
O=c1[nH][nH]cc1C=Nc1ccc(Cl)cc1Cl		inconclusive: 0.117 µM [inhibitor, full curve, poor fit]
O=C(O)Cc1sc(-c2cccnc2)nc1-c1ccc(Br)cc1	inactive: -8.83%	

Compound	activity change, negative = inhibition	Potency
Cc1cc(N2CCN(C3CCCCC3)CC2)nc2cccc(O)c12		inconclusive: 16.5 µM [inhibitor, single point]
CC(=O)OCCCNc1cc(SCc2ccco2)c2nonc2c1[N+](=O)[O-]		active: 2.33 µM
CCCNC(=O)Cn1c(=O)/c(=C\c2ccc(-c3ccc([N+](=O)[O-])cc3)o2)s/c1=C\C(=O)C(C)(C)C		inconclusive: 10.4 µM [inhibitor, partial curve, poor fit]
Nc1nonc1-n1nnc(C(=O)N/N=C/c2ccoc2)c1-c1ccccc1		inconclusive: 10.4 µM [inhibitor, single point]
Cc1cc(NC(=O)COC(=O)c2cc(S(=O)(=O)N3CCOCC3)ccc2N2CCCCC2)no1		inconclusive: 10.4 µM [inhibitor, partial curve, poor fit]
CCOP(=O)(OCC)c1nc(-c2cccc3ccccc23)oc1NCc1ccc(OC)cc1		active: 13.1 µM
O=C(CN1C(=O)c2cccnc2Oc2ccc(Cl)cc21)NCCC1=CCCCC1	inactive: 2.67%	
Cn1c(=O)cc(SCC(=O)NCCC2=CCCCC2)c2cc(Cl)ccc21		inconclusive: 11.7 µM [inhibitor, single point]
O=C(CCn1cccc1)Nc1nccs1		inconclusive: 10.4 µM [inhibitor, partial curve, poor fit]
CN1CCC(N(C)C(=O)/C(C#N)=C/c2ccc(OC(F)F)cc2)CC1	inactive: -1.35%	
Cc1ccc(C2CC(c3cccs3)=NN2C(=O)CSC2=NCCS2)cc1 (stereo unspecified)		active: 11.7 µM
COc1cccc(NC(=O)CN2C(=O)NC3(CCCc4ccccc43)C2=O)c1 (stereo unspecified)		active: 4.65 µM
COc1ccc(/C=N/NC(=O)c2[nH]c(C)c(C(=O)N/N=C/c3ccc(OC)cc3)c2C)cc1	inactive: 26.6%	
CCn1c(CNC(=O)c2ccc(OC)c(OC)c2)nnc1SCC(=O)Nc1ccc(OC)cc1		inconclusive: 10.4 µM [inhibitor, single point]
O=C(NC1CCCCCC1)c1cccs1	inactive: -15.6%	
O=C(COC(=O)COc1ccccc1)NC12CC3CC(CC(C3)C1)C2	inactive: -10.7%	
CCOC(=O)c1c(C)c(C(=O)N2CCN(c3ccc(F)cc3)CC2)c(C)n1C	inactive: 0%	
Cc1cc(-n2c(C)cc(C(=O)CSc3nc(N)cc(=O)[nH]3)c2C)no1		inconclusive: 8.28 µM [inhibitor, single point]
Cc1ccccc1NC(=S)c1ccc2ccccc2n1	inactive: 19.5%	
CCOC(=O)c1c(C)[nH]c(C)c1C(=O)COC(=O)/C=C/c1ccc(Cl)cc1		active: 9.28 µM
Cc1ccc(C(=O)Nc2cccc(N(C)S(C)(=O)=O)c2)cc1S(=O)(=O)Nc1ccccc1		inconclusive: 8.28 µM [inhibitor, partial curve, poor fit]
N#Cc1ccc(C(=O)Nc2nnc(-c3ccco3)o2)cc1		inconclusive: 18.5 µM [inhibitor, single point]
CCCn1nc(C(=O)NNC(=O)c2cccc(S(=O)(=O)NC(C)C)c2)c2ccccc2c1=O		active: 1.17 µM
